Test results from PubChem BioAssay AID1671190 (National Center for Advancing Translational Sciences (NCATS), 2021).
Screen size: about 580,000 compounds; about 6,100 (1.1%) were called active. Another 15% or so got no clear call; they are omitted. Calls come from the whole dose curve; as a rule, active = well fitted inhibition curve with a large enough effect; inconclusive = small, poorly fitted or top-dose-only effect, or another doubt; inactive = no such curve, though single readings can be large or run the other way. This is a selection; strong and weak results do not stand in their true shares. Entries without a call were filed so in the source.
% is set by controls: 0 for no effect and ±100 for the full control effect; potency is the fitted concentration of half-maximal effect.

Chains of the proteins cited; added tags and fusions are not shown. Lines headed by an entry give the natural chain unless they say otherwise; changes in a name come on top.
UniProt P18054: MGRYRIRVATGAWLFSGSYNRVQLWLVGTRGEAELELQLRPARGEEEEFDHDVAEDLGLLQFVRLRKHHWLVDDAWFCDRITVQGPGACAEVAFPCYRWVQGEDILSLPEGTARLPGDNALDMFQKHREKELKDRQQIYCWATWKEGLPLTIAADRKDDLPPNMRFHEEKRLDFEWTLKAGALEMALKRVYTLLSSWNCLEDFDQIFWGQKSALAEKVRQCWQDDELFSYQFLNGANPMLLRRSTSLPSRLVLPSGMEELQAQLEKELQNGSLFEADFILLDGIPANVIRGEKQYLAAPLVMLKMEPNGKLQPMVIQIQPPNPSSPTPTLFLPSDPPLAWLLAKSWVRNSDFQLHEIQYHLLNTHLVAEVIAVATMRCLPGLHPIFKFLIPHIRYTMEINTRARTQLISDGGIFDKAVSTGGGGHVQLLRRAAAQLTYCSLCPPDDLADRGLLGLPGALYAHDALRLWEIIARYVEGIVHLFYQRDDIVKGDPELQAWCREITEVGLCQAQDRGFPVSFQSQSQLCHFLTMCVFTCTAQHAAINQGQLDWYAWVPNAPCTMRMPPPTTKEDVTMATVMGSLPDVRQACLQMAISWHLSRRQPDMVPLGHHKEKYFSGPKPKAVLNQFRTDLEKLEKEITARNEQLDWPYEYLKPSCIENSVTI

The compounds below were run against Polyunsaturated fatty acid lipoxygenase ALOX12 (Homo sapiens) (UniProt P18054) (assay: Primary qHTS assay for inhibitors of human arachidonate 12S-lipoxygenase (ALOX12): Round 2). Conditions: purified 12hLO, xylenol orange hydroperoxide absorbance; activity change, negative = inhibition: at 0.00344 µM unless noted.
Outline: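 Purified human 12hLO (150 nM final) in 25 mM Hepes, 0.01% Triton X-100, pH 7.0 was preincubated 15 min at room temperature with compound. Then 40 uM arachidonic acid was added, 30 min. Hydroperoxide was read by Fe-XO absorbance ratio 573/405 nm.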
For `C[C@]12C=CC(=O)C=C1CC[C@@H]1[C@@H]2CC[C@@]2(C)[C@H]1CC[C@]2(C)O`, the activity change, negative = inhibition was 16%. `COc1ccc(CN2CCNCC2)c(OC)c1OC` was tested, and the activity change, negative = inhibition was -6.76%. Work on `CC(C)(N)Cc1ccc(Cl)cc1` yielded an activity change, negative = inhibition of -8.7%. `O=C(CCN1CCN(CCO)CC1)N1c2ccccc2Sc2ccc(C(F)(F)F)cc21` was tested, and the activity change, negative = inhibition was 18%. Compound `O=C1OC(CCN2CCCCC2)OC1(c1ccccc1)c1ccccc1` (configuration not stated) has an activity change, negative = inhibition of 14.6%. For `Cc1cc(O)ccc1Cl`, the activity change, negative = inhibition was 50.4%. Compound `C#C[C@]1(O)C=C[C@H]2[C@@H]3CCC4=CC(=O)CC[C@@H]4[C@H]3CC[C@@]21CC` has an activity change, negative = inhibition of -8.43%. `CCC1C(=O)OCC1Cc1cncn1C` (configuration not stated) showed an activity change, negative = inhibition of 28.6%. Work on `CN(C)C(=S)SSC(=S)N(C)C` yielded an activity change, negative = inhibition of 16.2%. In the case of `C=CCN1C(=O)NC(=O)/C(=C\c2ccc(-c3ccccc3[N+](=O)[O-])o2)C1=O`, the Potency is reported as active: 35.5 µM. For `Cc1ccc(S(=O)(=O)Oc2ccccc2C=C2C(=O)N(C)C(=O)N(C)C2=O)cc1`, the Potency was active: 44.7 µM. Compound `CN1C(=O)CN=C(c2ccccc2)c2cc([N+](=O)[O-])ccc21` has an activity change, negative = inhibition of 25.4%. For `Cc1cc(Cc2c(O)[nH]c(=S)[nH]c2=O)ccc1OC(C)C`, the Potency was active: 20 µM. Work on `CC(CC(C(N)=O)(c1ccccc1)c1ccccc1)N(C)C` (configuration not stated) yielded an activity change, negative = inhibition of 12.5%. Compound `CCN(C(C)=O)c1cccc(-c2ccnc3c(C#N)cnn23)c1` has an activity change, negative = inhibition of -5.87%. Work on `CCC(COC(=O)c1cc(OC)c(OC)c(OC)c1)(c1ccccc1)N(C)C` (configuration not stated) yielded an activity change, negative = inhibition of 20%. Compound `COc1cc(C[C@@H](C)N)c(OC)cc1Br` has an activity change, negative = inhibition of -26.5% [at 0.00599 µM]. In the case of `CCN(CC)C(=O)[C@@H]1C=C2c3cccc4[nH]cc(c34)C[C@H]2N(C)C1`, the activity change, negative = inhibition is reported as 4.14% [at 0.0215 µM]. `Cc1cccc(C)c1NC1=NCCCS1` showed an activity change, negative = inhibition of -0.395%. For `Nc1ccc(N)cc1`, the activity change, negative = inhibition was -27.5%. Work on `Clc1ccc(C(OCCN2CCCCC2)c2ccccc2)cc1` (configuration not stated) yielded an activity change, negative = inhibition of -1.46%. `Nc1ccccc1` showed an activity change, negative = inhibition of 15.8%. In the case of `CC[N+]1(CCOC(=O)C(O)(c2ccccc2)c2ccccc2)CCCCC1`, the activity change, negative = inhibition is reported as -13.5%. `C[N+]1(C)[C@@H]2CC[C@H]1CC(OC(=O)C(CO)c1ccccc1)C2` (some centres not stated) gave an activity change, negative = inhibition of -20.7%. `O=C(O)COc1ccccc1` showed an activity change, negative = inhibition of -3.36%. With `Clc1ccc(CCC(Cn2ccnc2)Sc2c(Cl)cccc2Cl)cc1` (configuration not stated) the activity change, negative = inhibition was 44.8%. With `CCC(=O)C(CCN(C)C)(c1ccccc1)c1ccccc1` the activity change, negative = inhibition was -2.21%. `C[N+](C)(C)CCOC(=O)C(O)(c1ccccc1)c1ccccc1` showed an activity change, negative = inhibition of 0.866%. For `Oc1ccc(Cl)cc1`, the activity change, negative = inhibition was 1.03%. `CC(C)NC(C)C` gave an activity change, negative = inhibition of 19.3%. `O=c1[nH]c2ccccc2n1C1CCNCC1` was tested, and the activity change, negative = inhibition was 20.6%. In the case of `O=C(O)c1ccc2[nH]cc(CCCCN3CC=C(c4ccccc4)CC3)c2c1`, the activity change, negative = inhibition is reported as 29.7%. For `O=c1oc2ccccc2c(O)c1Cc1c(O)c2ccccc2oc1=O`, the activity change, negative = inhibition was 7.55%. For `O=C(O)CC[n+]1ccc(-c2cc[n+](CCC(=O)O)cc2)cc1`, the Potency was active: 14.1 µM. In the case of `C[C@]12CC[C@@H]3c4ccc(OC(=O)N(CCCl)CCCl)cc4CC[C@H]3[C@@H]1CC[C@@H]2O`, the activity change, negative = inhibition is reported as -8.19%. `Clc1ccccc1CN1CCN(c2ccccc2)CC1` was tested, and the Potency was active: 0.891 µM. `CC1N=C(N)OC1c1ccccc1` (configuration not stated) showed an activity change, negative = inhibition of -1.87% [at 0.00599 µM]. Work on `Cc1nc2ccccc2c(=O)n1-c1ccccc1Cl` yielded an activity change, negative = inhibition of 15.5% [at 0.00599 µM]. `COP(=S)(OC)Oc1ccc(S(N)(=O)=O)cc1` was tested, and the activity change, negative = inhibition was -24%. `C#CC(O)(C=CCl)CC` (configuration not stated) gave an activity change, negative = inhibition of 5.03%. For `CC1NCCOC1c1ccccc1` (configuration not stated), the activity change, negative = inhibition was -13.2%. `CCC(C)(C)c1ccc(O)cc1` gave an activity change, negative = inhibition of -15%. For `NCCc1ccc(O)cc1`, the activity change, negative = inhibition was -11%. For `CCc1cc(OC)c(C[C@H](C)N)cc1OC`, the activity change, negative = inhibition was 17.6% [at 0.00599 µM]. `CNC(C)Cc1ccc2c(c1)OCO2` (configuration not stated) showed an activity change, negative = inhibition of -1.25% [at 0.0105 µM]. `CNCC(=O)c1ccc(O)c(O)c1` was tested, and the activity change, negative = inhibition was 0.461%. `CC(C)(C)NCC(O)c1cc(Cl)c(N)c(Cl)c1` (configuration not stated) showed an activity change, negative = inhibition of -24.8%. `Fc1ccc(C(OCCN2CCN(CCCc3ccccc3)CC2)c2ccc(F)cc2)cc1` gave an activity change, negative = inhibition of -16.9%. With `O=C(N/N=C/c1ccc([N+](=O)[O-])o1)c1cc([N+](=O)[O-])cc([N+](=O)[O-])c1O` the activity change, negative = inhibition was -25.7%. For `C[C@H](CN1CCOCC1)C(C(=O)N1CCCC1)(c1ccccc1)c1ccccc1`, the activity change, negative = inhibition was -21.2% [at 0.0105 µM]. `CCC1(CC)C(=O)C=CNC1=O` gave an activity change, negative = inhibition of -10.7%. Compound `CC1(C)C(C=C(Cl)Cl)C1C(=O)OC(C#N)c1cccc(Oc2ccccc2)c1` (configuration not stated) has an activity change, negative = inhibition of -19.9%. Compound `Oc1cc(Cl)ccc1Oc1ccc(Cl)cc1Cl` has an activity change, negative = inhibition of -1.53%. Compound `COc1cc(CC#N)cc(OC)c1OC` has an activity change, negative = inhibition of -3.53%. In the case of `CC(C)=CCN1CC[C@@]2(C)c3cc(O)ccc3C[C@@H]1[C@@H]2C`, the activity change, negative = inhibition is reported as 32.1% [at 0.00599 µM]. `COc1ccc2c3c1O[C@H]1[C@H](O)CC[C@H]4[C@@H](C2)N(C)CC[C@@]341` showed an activity change, negative = inhibition of -13.9% [at 0.00599 µM]. `COP(=S)(OC)SCN1C(=O)c2ccccc2C1=O` gave an activity change, negative = inhibition of -41.7%.
